# Reference: PubChem BioAssay AID330 (DTP/NCI, 2004)
# The list does not hold the whole screen: it gathers tests that were run many times, whatever their T/C, doses with no T/C, and many T/C values between a quarter and a half above the control. Further doses and runs are listed elsewhere. T/C gives the treated animals as a percentage of the vehicle group. Some entries give survivors of the animals treated and no T/C: the source holds a T/C of zero for them, seemingly a mark for toxic or unscored doses. Some doses without a T/C left all or most animals alive at the check, yet need not have been tolerated: the source hardly ever lists a survival T/C far under the control, and the zero likely stands for such cases as well. Counts of survivors are from the toxicity check (mostly the fifth day) where no day follows; animals may have died later. Schedules are NCI's codes, read here as Q, the interval in days (D) or hours (H), X, the number of doses. Some doses were run more than once; the values are given in rising order. For survival time, this PubChem deposit counts one and a half times the control or more as active, and values a quarter to a half above the control carry no call in these data; other NCI protocols may use other cut-offs. Some T/C values are followed by the survivors on the day toxicity was checked, most often the fifth; where none is given, no animal had died by that day.
# Test system: P388 leukemia ip, CD2F1 mice, survival T/C
# Assay: NCI In Vivo Anticancer Drug Screen. Data for tumor model P388 Leukemia (intraperitoneal) in CD2F1 (CDF1) mice
# Conditions: T/C endpoint: median survival time, higher T/C = longer survival
# [1] = dose: 30.0 mg/kg/injection, schedule: Q01DX005 (ip), vehicle: Klucel (hydroxypropylcellulose) (HPC)
# [2] = dose: 60.0 mg/kg/injection, schedule: Q01DX005 (ip), vehicle: Klucel (hydroxypropylcellulose) (HPC)
# [3] = dose: 120.0 mg/kg/injection, schedule: Q01DX005 (ip), vehicle: Klucel (hydroxypropylcellulose) (HPC)
# [4] = dose: 240.0 mg/kg/injection, schedule: Q01DX005 (ip), vehicle: Klucel (hydroxypropylcellulose) (HPC)
# [5] = dose: 18.75 mg/kg/injection, schedule: Q01DX009 (ip), vehicle: saline
# [6] = dose: 100.0 mg/kg/injection, schedule: Q01DX005 (ip), vehicle: Klucel (hydroxypropylcellulose) (HPC)
# [7] = dose: 200.0 mg/kg/injection, schedule: Q01DX005 (ip), vehicle: Klucel (hydroxypropylcellulose) (HPC)
structure (smiles),measurement,setting,value
Oc1ccc(Nc2ccnc3cc(Cl)ccc23)cc1CN(CCCl)CCCl,T/C,"dose: 1.1 mg/kg/injection, schedule: Q01DX009 (ip), vehicle: saline",137 % of control
same,T/C,"dose: 1.25 mg/kg/injection, schedule: Q01DX009 (ip), vehicle: saline",139 % of control
same,T/C,"dose: 1.7 mg/kg/injection, schedule: Q01DX009 (ip), vehicle: saline",144 % of control
same,T/C,"dose: 3.75 mg/kg/injection, schedule: Q01DX009 (ip), vehicle: saline",144 % of control
same,T/C,"dose: 5.0 mg/kg/injection, schedule: Q01DX009 (ip), vehicle: saline",130 % of control
same,survivor count,"dose: 10.0 mg/kg/injection, schedule: Q01DX009 (ip), vehicle: saline",5 of 6
CCCCc1nc2cc(CN3CCN(C(c4ccccc4)c4ccccc4)CC3)ccc2n1CC,survivor count,"dose: 50.0 mg/kg/injection, schedule: Q01DX009 (ip), vehicle: saline with Tween-80",6 of 6
same,survivor count,"dose: 100.0 mg/kg/injection, schedule: Q01DX009 (ip), vehicle: saline with Tween-80",3 of 6
same,survivor count,"dose: 200.0 mg/kg/injection, schedule: Q01DX009 (ip), vehicle: saline with Tween-80",2 of 6
COc1cc(/C=C(/NC(=O)c2ccccc2)C(O)=C(C#N)C#N)ccc1O,survivor count,"dose: 240.0 mg/kg/injection, schedule: Q01DX005 (ip), vehicle: saline",6 of 6
CCCCCCCCCCCC[n+]1cc2ccccc2cc1C,T/C,"dose: 12.5 mg/kg/injection, schedule: Q01DX005 (ip), vehicle: saline with Tween-80",129 [4 of 5 alive] and 137 % of control
same,survivor count,"dose: 25.0 mg/kg/injection, schedule: Q01DX005 (ip), vehicle: saline with Tween-80",3 of 5 and 4 of 5
same,survivor count,"dose: 50.0 mg/kg/injection, schedule: Q01DX005 (ip), vehicle: saline with Tween-80",0 of 5
same,survivor count,"dose: 100.0 mg/kg/injection, schedule: Q01DX005 (ip), vehicle: saline with Tween-80",0 of 5
same,survivor count,"dose: 200.0 mg/kg/injection, schedule: Q01DX005 (ip), vehicle: saline with Tween-80",0 of 5
COC1=CP(C)(=S)CC1 (configuration not stated),survivor count,"dose: 400.0 mg/kg/injection, schedule: Q04DX003 (ip), vehicle: Klucel (hydroxypropylcellulose) (HPC)",4 of 6
Clc1ccc2nc3ccccc3c(SCCCCCCSc3c4ccccc4nc4ccc(Cl)cc34)c2c1,survivor count,[1],6 of 6
same,survivor count,[2],6 of 6
same,survivor count,[3],6 of 6
same,survivor count,[4],6 of 6
CCCCNP(=O)(N1CC1C)N1CC1C (configuration not stated),T/C,"dose: 12.5 mg/kg/injection, schedule: Q01DX009 (ip), vehicle: saline",131 % of control
same,T/C,[5],145 % of control
same,T/C,"dose: 25.0 mg/kg/injection, schedule: Q04DX003 (ip), vehicle: saline",127 % of control
same,T/C,"dose: 50.0 mg/kg/injection, schedule: Q04DX003 (ip), vehicle: saline",145 % of control
same,survivor count,"dose: 100.0 mg/kg/injection, schedule: Q04DX003 (ip), vehicle: saline",6 of 6
COCC1OC2OC3C(COC)OC(OC4C(COC)OC(OC5C(COC)OC(OC6C(COC)OC(OC7C(COC)OC(OC8C(COC)OC(OC1C(O)C2O)C(O)C8O)C(O)C7O)C(O)C6O)C(O)C5O)C(O)C4O)C(O)C3O (configuration not stated) (tested in a mixture with another compound),survivor count,"dose: 800.0 mg/kg/injection, schedule: Q01DX009 (ip), vehicle: Klucel (hydroxypropylcellulose) (HPC)",0 of 6 and 2 of 6
same,survivor count,"dose: 1600.0 mg/kg/injection, schedule: Q01DX009 (ip), vehicle: Klucel (hydroxypropylcellulose) (HPC)",0 of 6
same,survivor count,"dose: 3200.0 mg/kg/injection, schedule: Q01DX009 (ip), vehicle: Klucel (hydroxypropylcellulose) (HPC)",0 of 6
Nc1nc(N)c(SC(F)(F)F)c(Cl)n1,survivor count,"dose: 240.0 mg/kg/injection, schedule: Q01DX005 (ip), vehicle: saline with Tween-80",1 of 6
[CH3][Sn]([CH3])([S]c1nc(O)cc(=O)[nH]1)[S]c1nc(O)cc(=O)[nH]1,survivor count,"dose: 25.0 mg/kg/injection, schedule: Q01DX005 (ip), vehicle: Klucel (hydroxypropylcellulose) (HPC)",6 of 6
same,survivor count,[6],1 of 6
same,survivor count,[7],0 of 6
CN1C(=O)C=CC1=O,survivor count,"dose: 8.0 mg/kg/injection, schedule: Q01DX009 (ip), vehicle: saline",0 of 6
O=C1Nc2ccccc2/C1=N/N=C/c1ccc(Cl)cc1Cl,survivor count,"dose: 50.0 mg/kg/injection, schedule: Q01DX009 (ip), vehicle: Klucel (hydroxypropylcellulose) (HPC)",6 of 6
CN=S(=O)(OCCCCOS(=O)(=NC)c1ccc(C)cc1)c1ccc(C)cc1 (configuration not stated),T/C,"dose: 100.0 mg/kg/injection, schedule: Q04DX003 (ip), vehicle: saline with Tween-80",125 % of control
same,T/C,"dose: 200.0 mg/kg/injection, schedule: Q04DX003 (ip), vehicle: saline with Tween-80",126 % of control
same,T/C,"dose: 400.0 mg/kg/injection, schedule: Q04DX003 (ip), vehicle: saline with Tween-80",131 % of control
N=C(N)c1ccc(/C=C/c2cc3cc(C(=N)N)ccc3o2)cc1,survivor count,"dose: 100.0 mg/kg/injection, schedule: Q04DX003 (ip), vehicle: suspension in saline",4 of 6
same,survivor count,"dose: 200.0 mg/kg/injection, schedule: Q04DX003 (ip), vehicle: suspension in saline",4 of 6
same,survivor count,"dose: 400.0 mg/kg/injection, schedule: Q04DX003 (ip), vehicle: suspension in saline",0 of 6
COC(=O)[C@@]12OC[C@]34C([C@@H](O)C1O)[C@@]1(C)CC(=O)C(O)=C(C)C1C[C@H]3OC(=O)[C@H](OC(=O)c1ccc(Cl)cc1)[C@H]42 (some centres not stated),survivor count,"dose: 32.0 mg/kg/injection, schedule: Q01DX005 (ip), vehicle: DMSO",3 of 6
NC(N)=NO,T/C,[5],130 % of control
same,T/C,"dose: 37.5 mg/kg/injection, schedule: Q01DX009 (ip), vehicle: saline",140 % of control
same,survivor count,"dose: 300.0 mg/kg/injection, schedule: Q01DX009 (ip), vehicle: saline",10 of 10
same,survivor count,"dose: 600.0 mg/kg/injection, schedule: Q01DX009 (ip), vehicle: saline",1 of 10
O=C1Nc2ccccc2/C1=N/N1C(=O)CSC1=S,survivor count,"dose: 7.5 mg/kg/injection, schedule: Q01DX005 (ip), vehicle: Klucel (hydroxypropylcellulose) (HPC)",6 of 6
same,survivor count,"dose: 15.0 mg/kg/injection, schedule: Q01DX005 (ip), vehicle: Klucel (hydroxypropylcellulose) (HPC)",3 of 6
same,survivor count,[1],0 of 6
same,survivor count,[2],0 of 6
same,survivor count,[3],0 of 6
same,survivor count,[4],0 of 6
CC(/C=C/c1ccccc1)=N\NC(=O)c1ccccc1,T/C,"dose: 50.0 mg/kg/injection, schedule: Q01DX005 (ip), vehicle: Klucel (hydroxypropylcellulose) (HPC)","100, 103, 108, 120 % of control"
same,T/C,[6],127 % of control [5 of 6 alive]
same,survivor count,[6],5 of 6
same,survivor count,[7],0 of 6 and 3 of 6
CCC1=CCCN(Cc2ccccc2)C1C#N (configuration not stated),survivor count,[2],1 of 6
same,survivor count,[3],1 of 6
same,survivor count,[4],0 of 6
C=C(C)[C@H]1Cc2c(ccc3c2O[C@@H]2COc4cc(OC)c(OC)cc4[C@@H]2C3=O)O1,survivor count,"dose: 12.5 mg/kg/injection, schedule: Q04DX003 (ip), vehicle: saline with Tween-80",6 of 6
same,survivor count,"dose: 25.0 mg/kg/injection, schedule: Q04DX003 (ip), vehicle: saline with Tween-80",4 of 6
same,survivor count,"dose: 50.0 mg/kg/injection, schedule: Q04DX003 (ip), vehicle: saline with Tween-80",0 of 6
BrC[Si](CBr)(c1ccccc1)c1ccccc1,survivor count,"dose: 100.0 mg/kg/injection, schedule: Q01DX009 (ip), vehicle: saline",6 of 6
same,survivor count,"dose: 200.0 mg/kg/injection, schedule: Q01DX009 (ip), vehicle: saline",6 of 6
O=C1OC(=O)C2c3ccccc3C=CC12 (configuration not stated),T/C,"dose: 100.0 mg/kg/injection, schedule: Q01DX001 (ip), vehicle: saline with Tween-80",130 % of control
[I][Ga]([I])[I],survivor count,"dose: 200.0 mg/kg/injection, schedule: Q04DX003 (ip), vehicle: saline sonified",5 of 6
same,survivor count,"dose: 400.0 mg/kg/injection, schedule: Q04DX003 (ip), vehicle: saline sonified",5 of 6
C=C[P+](c1ccccc1)(c1ccccc1)c1ccccc1,T/C,"dose: 3.0 mg/kg/injection, schedule: Q01DX009 (ip), vehicle: saline",134 % of control
